In publication doi:10.1101/679480:
Where two headings read alike, the source gives them in different places. These are yes or no findings as the source states them, for the method shown. Binding seen in cells or lysates may run through a third protein. Some binding calls cover weakened binding; strength is not graded here.

The chains behind the UniProt entries cited, without tags or fusion partners.
UniProt Q96GY3: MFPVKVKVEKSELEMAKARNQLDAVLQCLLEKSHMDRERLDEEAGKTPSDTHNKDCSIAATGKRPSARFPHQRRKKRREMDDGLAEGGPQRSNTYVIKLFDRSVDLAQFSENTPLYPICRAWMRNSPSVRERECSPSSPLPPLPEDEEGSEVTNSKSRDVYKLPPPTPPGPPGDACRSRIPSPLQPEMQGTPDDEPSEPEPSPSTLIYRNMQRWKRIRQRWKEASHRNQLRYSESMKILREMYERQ
UniProt P10244: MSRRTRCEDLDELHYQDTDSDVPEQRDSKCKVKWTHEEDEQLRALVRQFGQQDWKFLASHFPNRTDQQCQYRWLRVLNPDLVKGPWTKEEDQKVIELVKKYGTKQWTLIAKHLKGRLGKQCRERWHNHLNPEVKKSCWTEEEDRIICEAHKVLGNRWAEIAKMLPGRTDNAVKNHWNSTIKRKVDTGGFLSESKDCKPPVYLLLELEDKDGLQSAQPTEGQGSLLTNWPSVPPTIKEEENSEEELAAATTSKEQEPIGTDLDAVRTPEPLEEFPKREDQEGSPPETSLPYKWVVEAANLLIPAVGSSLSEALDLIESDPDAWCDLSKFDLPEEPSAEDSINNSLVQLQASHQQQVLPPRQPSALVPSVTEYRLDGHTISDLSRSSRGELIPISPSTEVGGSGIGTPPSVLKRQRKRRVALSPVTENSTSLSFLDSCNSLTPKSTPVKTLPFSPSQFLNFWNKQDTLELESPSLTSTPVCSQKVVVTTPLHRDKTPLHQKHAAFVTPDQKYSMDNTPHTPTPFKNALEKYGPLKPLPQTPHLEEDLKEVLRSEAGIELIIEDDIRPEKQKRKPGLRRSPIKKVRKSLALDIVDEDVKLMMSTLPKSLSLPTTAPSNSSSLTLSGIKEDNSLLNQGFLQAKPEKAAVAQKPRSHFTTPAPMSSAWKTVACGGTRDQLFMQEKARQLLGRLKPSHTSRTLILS
UniProt Q08999: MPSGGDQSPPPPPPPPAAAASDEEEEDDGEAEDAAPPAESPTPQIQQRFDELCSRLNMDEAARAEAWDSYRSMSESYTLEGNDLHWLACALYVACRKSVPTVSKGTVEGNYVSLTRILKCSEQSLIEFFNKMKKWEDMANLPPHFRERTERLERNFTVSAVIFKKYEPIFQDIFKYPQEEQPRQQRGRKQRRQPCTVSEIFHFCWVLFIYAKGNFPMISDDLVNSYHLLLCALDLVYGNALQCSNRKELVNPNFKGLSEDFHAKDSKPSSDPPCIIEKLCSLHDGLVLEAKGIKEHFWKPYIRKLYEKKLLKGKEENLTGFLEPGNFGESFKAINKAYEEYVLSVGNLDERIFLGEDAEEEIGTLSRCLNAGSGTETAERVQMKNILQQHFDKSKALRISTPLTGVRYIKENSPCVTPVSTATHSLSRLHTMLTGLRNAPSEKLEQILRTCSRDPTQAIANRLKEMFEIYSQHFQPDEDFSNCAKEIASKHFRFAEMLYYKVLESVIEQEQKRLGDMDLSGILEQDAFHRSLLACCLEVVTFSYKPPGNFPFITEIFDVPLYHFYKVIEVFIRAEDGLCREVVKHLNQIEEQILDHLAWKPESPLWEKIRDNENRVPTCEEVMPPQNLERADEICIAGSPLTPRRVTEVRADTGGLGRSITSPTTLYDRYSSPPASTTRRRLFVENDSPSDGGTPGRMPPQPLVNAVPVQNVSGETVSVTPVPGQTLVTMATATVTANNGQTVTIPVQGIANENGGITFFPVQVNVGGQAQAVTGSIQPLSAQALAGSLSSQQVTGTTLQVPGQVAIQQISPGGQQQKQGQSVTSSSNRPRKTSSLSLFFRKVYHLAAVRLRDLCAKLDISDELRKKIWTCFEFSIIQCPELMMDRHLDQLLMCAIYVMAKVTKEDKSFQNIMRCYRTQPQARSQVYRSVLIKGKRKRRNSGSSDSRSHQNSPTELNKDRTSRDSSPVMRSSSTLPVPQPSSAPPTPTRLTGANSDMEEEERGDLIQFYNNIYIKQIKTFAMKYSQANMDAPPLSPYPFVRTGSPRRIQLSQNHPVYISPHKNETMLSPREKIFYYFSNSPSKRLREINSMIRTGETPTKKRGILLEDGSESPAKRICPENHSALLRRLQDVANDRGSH

Tests used:
[1] = target: LIN37 (human (endogenous in meningioma tumor tissue)) (UniProt Q96GY3); test: co-IP
[2] = target: LIN37 (human (endogenous in meningioma tumor tissue)) (UniProt Q96GY3); test: co-IP; remark: listed apart in the source

| Molecule | binding [1] | binding [2] |
| --- | --- | --- |
| MYBL2 (from UniProt P10244 1-700) | binds |  |
| RBL2 (from UniProt Q08999 1-1139) | binds |  |
| FOXM1 (protein, UniProt Q08050 1-763) MKTSPRRPLILKRRRLPLPVQNAPSETSEEEPKRSPAQQESNQAEASKEVAESNSCKFPAGIKIINHPTMPNTQVVAIPNNANIHSIITALTAKGKESGSSGPNKFILISCGGAPTQPPGLRPQTQTSYDAKRTEVTLETLGPKPAARDVNLPRPPGALCEQKRETCADGEAAGCTINNSLSNIQWLRKMSSDGLGSRSIKQEMEEKENCHLEQRQVKVEEPSRPSASWQNSVSERPPYSYMAMIQFAINSTERKRMTLKDIYTWIEDHFPYFKHIAKPGWKNSIRHNLSLHDMFVRETSANGKVSFWTIHPSANRYLTLDQVFKPLDPGSPQLPEHLESQQKRPNPELRRNMTIKTELPLGARRKMKPLLPRVSSYLVPIQFPVNQSLVLQPSVKVPLPLAASLMSSELARHSKRVRIAPKVLLAEEGIAPLSSAGPGKEEKLLFGEGFSPLLPVQTIKEEEIQPGEEMPHLARPIKVESPPLEEWPSPAPSFKEESSHSWEDSSQSPTPRPKKSYSGLRSPTRCVSEMLVIQHRERRERSRSRRKQHLLPPCVDEPELLFSEGPSTSRWAAELPFPADSSDPASQLSYSQEVGGPFKTPIKETLPISSTPSKSVLPRTPESWRLTPPAKVGGLDFSPVQTSQGASDPLPDPLGLMDLSTTPLQSAPPLESPQRLLSSEPLDLISVPFGNSSPSDIDVPKPGSPEPQVSGLAANRSLTEGLVLDTMNDSLSKILLDISFPGLDEDPLGPDNINWSQFIPELQ |  | binds |
